“And” between values parts separate entries of the source, which are not always exact repeats. Equal values may be shown once. Some of the results follow. Many values rest on one well or one pass, so single values are uncertain.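 The assay uses human stem cell-derived hepatocyte-like cells whose DGUOK gene was disrupted by CRISPR, modeling liver mtDNA depletion syndrome. ATP signals were scored within each plate, and any drug with a score of at least 3 was called a primary hit.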

The subject of the experiment is DGUOK Δ14/Δ5 iPSC-derived hepatocyte-like cells (SV20). As to the kind of experiment: ATP level (CellTiter-Glo luminescence) Z score relative to plate distribution, under 2-DG glycolysis block; higher = more cellular ATP (rescue of mitochondrial ATP production). As to conditions: 5 µM; treatment time: day 15 to day 20 of differentiation (5 days); 2-deoxy-D-glucose: 20 mM for 24 h before assay. In general terms: ATP-based viability assays read luminescence as a measure of living cells.
Regarding `CCC(=O)NCC[C@@H]1CCc2ccc3c(c21)CCO3`, the ATP level is inactive: 2.28.

As to `CNC(=O)c1c(I)c(NC(C)=O)c(I)c(C(=O)O)c1I`, the ATP level was inactive: -1.09.

Consider `COc1ccc(-c2coc3cc(O)cc(O)c3c2=O)cc1`, for which the ATP level was inactive: 2.24.

`COc1ccc(CC(=O)c2ccc(O)cc2O)cc1`: the ATP level was inactive: 0.847.

For `COc1ccc(-c2cc(=O)c3c(O)cc(OC)c(OC)c3o2)c(OC)c1`, the ATP level was inactive: -3.55.

`COC(=O)Nc1nc2cc(C(=O)c3ccc(F)cc3)ccc2[nH]1`: the ATP level was inactive: -2.19.

On to `Nc1nc(=O)c2c([nH]1)NCC(CNc1ccc(C(=O)N[C@@H](CCC(=O)O)C(=O)O)cc1)=N2`, for which the ATP level is inactive: 2.3.

Turning to `CCOC(=O)c1ccc(O)cc1`, the ATP level is inactive: 0.928.

For `O=C(O)c1ccccc1Nc1cccc(OCc2ccc3ccccc3n2)c1`, the ATP level is inactive: -3.12.

Regarding `CC(O)CC(C)(C)O` (stereo not drawn), the ATP level was inactive: -16.7.

As for `COc1ccc2cc1Oc1ccc(cc1)C[C@H]1c3c(cc4c(c3Oc3cc5c(cc3OC)CCN(C)[C@@H]5C2)OCO4)CCN1C`, the ATP level was inactive: -1.64.

As for `Cn1c(=O)c2[nH]c(Br)nc2n(C)c1=O`, the ATP level was inactive: -13.

Regarding `COC1=C(OC)C(=O)C(C/C=C(\C)CC/C=C(\C)CC/C=C(\C)CC/C=C(\C)CC/C=C(\C)CC/C=C(\C)CC/C=C(\C)CC/C=C(\C)CC/C=C(\C)CCC=C(C)C)=C(C)C1=O`, the ATP level is inactive: 1.31.

`Cc1c(OCC(F)(F)F)ccnc1C[S+]([O-])c1nc2ccccc2[nH]1` (stereo not drawn): the ATP level is inactive: -6.12.

In the case of `O=C(/C=C/c1ccccc1)c1ccc(O)cc1O`, the ATP level was inactive: 1.79.

With `Cn1c(=O)c2c(ncn2C)n(C)c1=O`, the ATP level was inactive: 1.06.

As for `S=P(N1CC1)(N1CC1)N1CC1`, the ATP level was inactive: -24.5.

Consider `CC(C)[C@@H]1CC[C@@H](C)C[C@H]1OC(=O)c1ccccc1`, for which the ATP level is inactive: 1.87.

For `Cc1cc(O)cc(=O)o1`, the ATP level was inactive: 0.841.

With `COC(=O)/C(=C1/OC(=O)C(c2ccccc2)=C1O)c1ccccc1`, the ATP level is inactive: 0.74.

Take `CC(C)[C@H]1CC[C@H](C(=O)N[C@H](Cc2ccccc2)C(=O)O)CC1`: the ATP level was active: 4.57.

Turning to `COc1c(O)cc2c(c1O)[C@@H]1O[C@H](CO)[C@@H](O)[C@H](O)[C@H]1OC2=O`, the ATP level is inactive: 1.06.

Regarding `CC(=O)Oc1cccc(C(=O)O)c1OC(C)=O`, the ATP level is inactive: -0.676.

For `COc1ccc(C(C)=O)c(O)c1`, the ATP level is inactive: -1.36.

On to `CC(C)c1nc(CN(C)C(=O)N[C@H](C(=O)N[C@@H](Cc2ccccc2)C[C@H](O)[C@H](Cc2ccccc2)NC(=O)OCc2cncs2)C(C)C)cs1`, for which the ATP level is inactive: 1.73.

Regarding `COc1ccccc1OCCNCC(O)COc1cccc2[nH]c3ccccc3c12` (stereo not drawn), the ATP level is inactive: -3.9 and inactive: -9.09.

On to `COc1cc2c(cc1OC)-c1c(oc3cc(O)cc(O)c3c1=O)CO2`, for which the ATP level is inactive: 0.808.

For `CC1CCc2cc(F)cc3c(=O)c(C(=O)O)cn1c23` (stereo not drawn), the ATP level was inactive: -5.18.

In the case of `CCCCOc1ccc(OCCCN2CCOCC2)cc1`, the ATP level was inactive: -0.913.

Take `CCCCCCCCCCCCCCCCC(C(=O)O)C(O)(CC(=O)O)C(=O)O` (stereo not drawn): the ATP level was inactive: -0.0409.

With `CC(=O)O[C@H]1C[C@@H](OC(C)=O)C(C)(C)C2CC(=O)[C@]3(C)C(CC[C@@]4(C)[C@H](C(=O)O)OC(=O)C5OC543)[C@]21C` (stereo partly drawn), the ATP level is inactive: -0.785.

With `CC1(C)S[C@@H]2[C@H](N3C(=O)[C@@H](c4ccccc4)NC3(C)C)C(=O)N2[C@H]1C(=O)O`, the ATP level is inactive: 2.18.

As for `CCn1cc(C(=O)O)c(=O)c2cc(F)c(N3CCNCC3)cc21`, the ATP level is inactive: -3.82.

As to `COC(=O)c1c(C)cc(OC(=O)c2c(C)cc(O)c(CO)c2O)c(C)c1O`, the ATP level is inactive: 0.143.

With `O=c1c(O)c(-c2ccc(O)c(O)c2)oc2c(O[C@@H]3O[C@H](CO)[C@@H](O)[C@H](O)[C@H]3O)c(O)cc(O)c12`, the ATP level is inactive: -1.02.

`O=C(c1ccc(OCCN2CCCCC2)cc1)c1c(-c2ccc(O)cc2)sc2cc(O)ccc12`: the ATP level was inactive: -3.98.

On to `CC(CN1c2ccccc2Sc2ccccc21)N(C)C` (stereo not drawn), for which the ATP level is inactive: -1.02.

For the molecule `C=C1[C@H]2CC[C@@]3(C)[C@H](c4ccoc4)OC(=O)C[C@]13O[C@H]1C[C@H](O)C(C)(C)[C@H](CC(=O)OC)[C@]12C` [3-DEOXY-3beta-HYDROXYANGOLENSIC ACID METHYL ESTER], the ATP level was inactive: -4.45.

`NS(=O)(=O)c1cc2c(cc1C(F)(F)F)NC(Cc1ccccc1)NS2(=O)=O` (stereo not drawn): the ATP level is active: 4.31.

Take `CNC1(C)C2CCC(C2)C1(C)C` (stereo not drawn): the ATP level is inactive: 1.85.

As for `NC(=O)C1(N2CCCCC2)CCN(CCCC(=O)c2ccc(F)cc2)CC1`, the ATP level was inactive: 0.

Turning to `CCCCCCCCCCCCCCCC[N+](C)(C)C`, the ATP level is inactive: -13.3.

With `O=C(O)CCc1nc2ccccc2[nH]1`, the ATP level is inactive: -0.152.

Take `C=C(NC(=O)C(=C)NC(=O)c1csc(C2=N[C@@H]3c4csc(n4)[C@H]4NC(=O)c5csc(n5)[C@H]([C@](C)(O)[C@@H](C)O)NC(=O)[C@H]5CSC(=N5)/C(=C/C)NC(=O)[C@H]([C@@H](C)O)NC(=O)c5csc(n5)[C@]3(CC2)NC(=O)[C@H](C)NC(=O)C(=C)NC(=O)[C@H](C)NC(=O)[C@H]([C@@H](C)CC)N[C@@H]2C=Cc3c([C@H](C)O)cc(nc3[C@H]2O)C(=O)O[C@@H]4C)n1)C(N)=O`: the ATP level is inactive: -12.3.

For the molecule `Cn1c(=O)c2c(ncn2CC(O)CO)n(C)c1=O` (stereo not drawn), the ATP level was inactive: -0.646.

As to `CCCc1nc(C(C)(C)O)c(C(=O)OCc2oc(=O)oc2C)n1Cc1ccc(-c2ccccc2-c2nnn[nH]2)cc1`, the ATP level was inactive: -0.231.

Consider `NC(=O)c1cccnc1`, for which the ATP level is inactive: 0.707.

For `Nc1nccs1`, the ATP level was inactive: -1.96.

Turning to `COc1cc(C)c2c(=O)cc(-c3ccccc3)oc2c1`, the ATP level was inactive: 0.649.

Regarding `CC(C)(Oc1ccc(C2CC2(Cl)Cl)cc1)C(=O)O` (stereo not drawn), the ATP level is inactive: -14.6.

Consider `CC1=C(C(=O)O)N2C(=O)[C@@H](NC(=O)[C@H](N)c3ccc(O)cc3)[C@H]2SC1`, for which the ATP level is inactive: 1.67.

In the case of `CC1=CCCC(C)=CCC(C)(C)C=CC1` [HUMULENE (alpha)], the ATP level is inactive: 1.91.

Turning to `O=C(O)/C=C/c1ccccc1`, the ATP level was inactive: 1.88.

(Values after the supplement of paper PMC6289059.)
